“Also recorded” adds a separate entry of the source.
Key:
[1] = Reaction with N-acetylcysteamine (model for skin-bound sulfhydryl groups) in the presence of base, followed by 1H NMR; conditions: for covalent adduct formation with N-acetylcysteamine: in the presence of a base (DBN or triethylamine), chloroform
Source text: As a model for skin-bound sulfhydryl groups (—SH) of cysteine residues in skin proteins, the compound N-acetylcysteamine was allowed to react with OSM in the presence of a catalytic amount of the base 1,5-diazabicyclo[4.3.0]non-5-ene (DBN) in chloroform solution.
As a model for skin-bound sulfhydryl groups (—SH) of cysteine residues in skin proteins, the compound N-acetylcysteamine was allowed to react with OCM in the presence of a catalytic amount of the base 1,5-diazabicyclo[4.3.0]non-5-ene (DBN) in chloroform solution.
As a model for skin bound sulfhydryl groups (—SH) of cysteine residues in skin proteins, the compound N-acetylcysteamine was allowed to react with DCPEG in the presence of a catalytic amount of the base 1,5-diazabicyclo[4.3.0]non-5-ene (DBN) in chloroform solution.
A solution of octadecyl S-sorbyl-3 -mercaptopropionate (10.9 mg, 0.024 mmol) in 0.3 mL of CDCl3 was added to a solution of N-acetylcysteamine (5.2 μL, 0.048 mmol) and DBN (3.1 μL, 0.025 mmol) in 0.3 mL of CDCl3. The mixture was immediately transferred to an NMR tube and the first spectrum was recorded at time=0. The reaction solution was allowed to stand at room temperature in the NMR tube for two days, and the course of the reaction was monitored by periodically recording the ^1H NMR spectrum. A total often ^1H NMR experiments were performed at time=0, 0.25, 0.5, 1, 1.5, 4.5, 12, 20.5, 26, and 39 hours.
The time course of the reaction of OSM with 2 equiv of N-acetylcysteamine in the presence of 1 equiv of DBN in 0.6 mL of CDCl3 was studied by recording ^1H NMR spectra at various times for 39 hours. The signals of the olefinic protons due to the sorbate group of OSM (δ 6.2-6.0 and δ 7.2) and that of the newly formed C═C bond of the monoadducts (δ 5.6-5.2) were monitored in particular. In the course of these experiments, it was observed that the signals at δ 6.2-6.0 and δ 7.2 disappeared, while those at δ 5.6-5.2 appeared over the first 1.5 hours of the reaction, which indicated the formation of the monoadducts. The olefinic protons signals of the monoadducts started to fade away gradually after 1.5 hours and became very weak by approximately 39 hours. These spectra may imply the formation of the diadduct.
The reaction of OCM with N-acetylcysteamine was carried out at room temperature as follows: 22.0 mg of OCM was dissolved in 0.6 mL of CDCl3 and 5.7 μL of N-acetylcysteamine (1 equivalent) was added. […] Then a catalytic amount (0.1 equiv) of the base DBN was added, and the NMR spectrum was recorded immediately and again after 5 minutes. […]
The reaction of DCPEG with N-acetylcysteamine was followed by NMR: 35.6 mg of DCPEG was dissolved in 0.7 mL CDCl3 and the spectrum was recorded before and after addition of N-acetylcysteamine (1 equivalent per crotonyl moiety). […]

[2] = Reaction with cysteine ethyl ester (model for skin-bound cysteine residues); conditions: under similar conditions (catalytic DBN, chloroform)

Row | Structure (SMILES) | covalent adduct formation with N-acetylcysteamine [1] | covalent attachment to cysteine ethyl ester [2] | reaction with N-acetylcysteamine before addition of base ([1]; 1 equivalent N-acetylcysteamine, CDCl3, room temperature, no DBN)
1 | C/C=C/C=C/C(=O)SCCC(=O)OCCCCCCCCCCCCCCCCCC [OSM, octadecyl S-sorbyl-3-mercaptopropionate] | react with N-acetylcysteamine; also recorded: covalent bond formation occurred | Covalent attachment also occurs | –
2 | C/C=C/C=C/C(=O)OCCCCCCCCCCCCCCCCCC [OS, n-Octadecyl sorbate, reference compound] | react with N-acetylcysteamine | – | –
3 | C/C=C/C(=O)SCCC(=O)OCCCCCCCCCCCCCCCCCC [OCM, octadecyl S-crotonyl-3-mercaptopropionate] | covalent bond formation occurred | reaction also occurred | no reaction had occurred

Source: patent US20020006421A1, “Long-acting, chemical-resistant skin emollients, moisturizers, and strengtheners” (priority 1997, published 2002)
